# Data from patent publication US20150204850A1, “PRODUCTION OF BETA-CELLS” (Max-Planck-Gesellschaft zur Förderung der. Wissenschaften …, priority 2009, published 2015).
# For at least one compound, name, drawing or mass did not settle the structure.
# System: POE::Glucre β-cells
# Assay: Arginine and liraglutide tolerance tests
# Format: in vivo, mouse
# Details: 10-week old POE::Glucre, liraglutide 200 micrograms per kg subcutaneously 30 min prior to glucose challenge
smiles,measurement,setting,value
CCCCCCCCCCCCCCCC(=O)N[C@@H](CCC(=O)NCCCC[C@H](NC(=O)[C@H](C)NC(=O)[C@H](C)NC(=O)[C@H](CCC(N)=O)NC(=O)CNC(=O)[C@H](CCC(=O)O)NC(=O)[C@H](CC(C)C)NC(=O)[C@H](Cc1ccc(O)cc1)NC(=O)[C@H](CO)NC(=O)[C@H](CO)NC(=O)[C@@H](NC(=O)[C@H](CC(=O)O)NC(=O)[C@H](CO)NC(=O)[C@@H](NC(=O)[C@H](Cc1ccccc1)NC(=O)[C@@H](NC(=O)CNC(=O)[C@H](CCC(=O)O)NC(=O)[C@H](C)NC(=O)[C@@H](N)Cc1cnc[nH]1)[C@@H](C)O)[C@@H](C)O)C(C)C)C(=O)N[C@@H](CCC(=O)O)C(=O)N[C@@H](Cc1ccccc1)C(=O)N[C@H](C(=O)N[C@@H](C)C(=O)N[C@@H](Cc1c[nH]c2ccccc12)C(=O)N[C@@H](CC(C)C)C(=O)N[C@H](C(=O)N[C@@H](CCCNC(=N)N)C(=O)NCC(=O)N[C@@H](CCCNC(=N)N)C(=O)NCC(=O)O)C(C)C)[C@@H](C)CC)C(=O)O [liraglutide],Glucose clearance upon glucose challenge,,promoted an improved glucose clearance
same,Insulin secretion after liraglutide,lower than in younger animals,able to elicit an insulin secretion
